Patent US6399562B2, “Solvent compositions” (Ausimont S.p.A., priority 2000, dated 2002)

Experiment: environmental impact: ODP, lifetime, GWP
Settings: for ODP: CFC 11 = 1; for GWP100years: CO2 = 1

Compound	lifetime [years]	ODP	ODP (listed as The hydrofluoropolyether)	GWP100years
FC(F)OC(F)(F)C(F)(F)OC(F)F [HCF2OCF2CF2OCF2H, 1-difluoromethoxy-1,1,2,2-tetrafluoroethyl difluoromethyl ether]	<10	0	zero	1,725
FC(F)(Cl)C(F)(Cl)Cl [CFC 113, 1,1,2-trichloro-1,2,2-trifluoroethane, reference compound]	110	1.07	–	5,000
